Only a part is listed here, and it is no random draw. At the low end of the ranking, values are background and their order means little.
Columns and labels:
Experiment in all cases: DAPPL (digital affinity profiling via proximity ligation, sequencing)
Conditions in all cases: 10 mM Tris-HCl pH 7.5, 50 mM NaCl, 1 mM DTT, 4% glycerol, room temperature, 30 min; GST-TFs on glutathione beads, 16-mer random dsDNA library, 0.1% …; high values mean tight binding; double strand, one strand shown; scale: fold enrichment (6-mer frequency, TF over GST control)
FLI1 = target: T1, FLI1 (UniProt Q01543)
T1 sequence: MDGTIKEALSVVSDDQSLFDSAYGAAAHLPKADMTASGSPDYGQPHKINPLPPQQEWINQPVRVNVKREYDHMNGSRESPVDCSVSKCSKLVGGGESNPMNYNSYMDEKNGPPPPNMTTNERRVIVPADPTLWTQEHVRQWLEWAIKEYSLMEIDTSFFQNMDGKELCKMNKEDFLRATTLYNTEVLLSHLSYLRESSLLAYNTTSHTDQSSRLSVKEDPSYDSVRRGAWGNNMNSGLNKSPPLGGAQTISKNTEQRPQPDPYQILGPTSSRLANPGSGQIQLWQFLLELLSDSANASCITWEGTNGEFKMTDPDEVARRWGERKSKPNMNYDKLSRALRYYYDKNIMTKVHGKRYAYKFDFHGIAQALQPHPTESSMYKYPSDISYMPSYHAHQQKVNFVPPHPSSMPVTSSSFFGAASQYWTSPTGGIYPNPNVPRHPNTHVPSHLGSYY

Chains of the proteins cited; added tags and fusions are not shown. Lines headed by an entry give the natural chain unless they say otherwise; changes in a name come on top.
UniProt Q01892: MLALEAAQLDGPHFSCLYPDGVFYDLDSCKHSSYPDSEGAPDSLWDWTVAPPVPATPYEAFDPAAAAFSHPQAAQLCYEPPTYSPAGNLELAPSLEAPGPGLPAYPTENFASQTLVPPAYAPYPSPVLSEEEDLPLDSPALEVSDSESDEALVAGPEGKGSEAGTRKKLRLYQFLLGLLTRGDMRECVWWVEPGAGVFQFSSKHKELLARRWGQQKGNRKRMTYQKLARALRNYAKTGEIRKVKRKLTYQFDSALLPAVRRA
UniProt P41161: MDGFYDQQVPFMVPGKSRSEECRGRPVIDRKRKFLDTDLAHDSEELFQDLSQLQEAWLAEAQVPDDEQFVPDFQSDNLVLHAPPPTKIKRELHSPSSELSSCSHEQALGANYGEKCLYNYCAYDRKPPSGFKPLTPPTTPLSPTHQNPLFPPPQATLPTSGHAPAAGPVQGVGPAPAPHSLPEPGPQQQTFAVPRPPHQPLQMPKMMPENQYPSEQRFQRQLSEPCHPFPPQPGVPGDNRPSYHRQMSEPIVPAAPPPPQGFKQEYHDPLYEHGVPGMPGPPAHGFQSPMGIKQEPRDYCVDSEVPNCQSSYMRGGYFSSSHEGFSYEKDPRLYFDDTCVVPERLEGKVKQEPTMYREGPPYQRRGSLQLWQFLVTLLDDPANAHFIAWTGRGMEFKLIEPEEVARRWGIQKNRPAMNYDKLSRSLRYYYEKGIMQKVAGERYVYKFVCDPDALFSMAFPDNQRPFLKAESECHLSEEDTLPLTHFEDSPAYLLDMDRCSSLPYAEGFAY
UniProt Q99607: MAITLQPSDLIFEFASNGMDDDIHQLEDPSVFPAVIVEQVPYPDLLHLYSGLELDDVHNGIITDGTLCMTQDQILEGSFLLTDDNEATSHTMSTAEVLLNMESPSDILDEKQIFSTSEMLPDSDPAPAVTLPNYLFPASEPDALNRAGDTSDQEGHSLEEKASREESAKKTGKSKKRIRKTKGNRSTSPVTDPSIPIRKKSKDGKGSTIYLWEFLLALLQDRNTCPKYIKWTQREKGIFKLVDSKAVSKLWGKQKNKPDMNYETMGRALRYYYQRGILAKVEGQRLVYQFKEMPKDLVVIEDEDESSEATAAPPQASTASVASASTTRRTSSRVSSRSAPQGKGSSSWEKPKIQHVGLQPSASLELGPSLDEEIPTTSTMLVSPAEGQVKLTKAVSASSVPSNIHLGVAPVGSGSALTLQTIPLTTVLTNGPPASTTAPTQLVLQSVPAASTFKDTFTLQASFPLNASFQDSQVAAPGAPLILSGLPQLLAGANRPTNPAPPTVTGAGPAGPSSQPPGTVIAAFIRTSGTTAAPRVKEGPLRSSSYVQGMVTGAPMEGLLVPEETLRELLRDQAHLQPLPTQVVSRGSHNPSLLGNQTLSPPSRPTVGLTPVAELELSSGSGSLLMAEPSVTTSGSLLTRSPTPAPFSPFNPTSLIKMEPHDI

EHF = target: T2, EHF (UniProt Q9NZC4)
T2 sequence: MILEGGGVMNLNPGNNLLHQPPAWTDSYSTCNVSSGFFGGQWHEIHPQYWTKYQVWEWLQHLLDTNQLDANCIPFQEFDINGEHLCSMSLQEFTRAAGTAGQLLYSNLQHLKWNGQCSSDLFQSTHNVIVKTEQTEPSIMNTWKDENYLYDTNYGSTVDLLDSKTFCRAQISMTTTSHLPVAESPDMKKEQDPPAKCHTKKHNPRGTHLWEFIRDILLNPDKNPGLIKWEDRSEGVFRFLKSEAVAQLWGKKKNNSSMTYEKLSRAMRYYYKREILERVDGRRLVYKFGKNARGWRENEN

SPIB = SPIB (UniProt Q01892)
ETV5 = ETV5 (UniProt P41161)
ELF4 = ELF4 (UniProt Q99607)
ETV2 = target: T3, ETV2 (UniProt O00321)
T3 sequence: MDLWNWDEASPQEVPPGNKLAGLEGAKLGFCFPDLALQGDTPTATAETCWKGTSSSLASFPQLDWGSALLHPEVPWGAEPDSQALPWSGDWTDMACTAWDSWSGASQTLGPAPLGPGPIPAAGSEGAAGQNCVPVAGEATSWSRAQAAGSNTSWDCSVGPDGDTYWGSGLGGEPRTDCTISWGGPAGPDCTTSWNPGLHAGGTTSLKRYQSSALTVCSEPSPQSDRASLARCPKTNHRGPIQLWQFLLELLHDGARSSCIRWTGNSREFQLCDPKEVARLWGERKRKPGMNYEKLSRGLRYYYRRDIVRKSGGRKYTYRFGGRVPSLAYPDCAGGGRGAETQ

ETV3L = target: T4, ETV3L (UniProt Q6ZN32)
T4 sequence: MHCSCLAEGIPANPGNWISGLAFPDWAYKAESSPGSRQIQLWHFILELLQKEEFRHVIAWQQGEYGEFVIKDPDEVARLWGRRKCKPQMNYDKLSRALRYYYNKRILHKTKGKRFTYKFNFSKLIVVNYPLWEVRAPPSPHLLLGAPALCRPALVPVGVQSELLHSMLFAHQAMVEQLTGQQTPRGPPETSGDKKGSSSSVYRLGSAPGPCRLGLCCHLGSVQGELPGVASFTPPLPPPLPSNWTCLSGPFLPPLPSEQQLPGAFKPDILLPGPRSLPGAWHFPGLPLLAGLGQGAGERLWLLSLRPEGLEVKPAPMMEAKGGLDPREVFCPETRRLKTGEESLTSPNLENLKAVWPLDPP

Sequence | binding signal (FLI1) | binding signal (EHF) | binding signal (SPIB) | binding signal (ETV5) | binding signal (ELF4) | binding signal (ETV2) | binding signal (ETV3L)
GTAAGT | 0.757 | 0.74 | 0.702 | 0.802 | 0.716 | 0.743 | 0.716
AGAGAG | 0.539 | 0.544 | 0.487 | 0.551 | 0.514 | 0.594 | 0.511
GGCGAA | 0.662 | 0.661 | 0.737 | 0.727 | 0.736 | 0.638 | 0.697
GGGTGT | 0.692 | 0.775 | 0.733 | 0.746 | 0.818 | 0.742 | 0.746
GCAGGC | 0.656 | 0.676 | 0.727 | 0.745 | 0.7 | 0.786 | 0.652
CGGCCA | 0.804 | 0.774 | 0.793 | 0.816 | 0.91 | 0.774 | 0.848
GACGCT | 0.784 | 0.738 | 0.83 | 0.833 | 0.83 | 0.827 | 0.727
ATGTGA | 0.692 | 0.624 | 0.642 | 0.644 | 0.621 | 0.594 | 0.722
GTAGGA | 0.601 | 0.588 | 0.612 | 0.64 | 0.534 | 0.626 | 0.612
GGGAAG | 0.822 | 0.917 | 0.917 | 0.95 | 0.757 | 0.832 | 0.842
TGCGGG | 0.863 | 0.841 | 0.855 | 0.81 | 0.862 | 0.828 | 0.835
TGGAGC | 0.614 | 0.657 | 0.546 | 0.619 | 0.66 | 0.603 | 0.556
TCGGCG | 0.501 | 0.502 | 0.449 | 0.473 | 0.565 | 0.584 | 0.523
GCTGGG | 0.804 | 0.842 | 0.829 | 0.796 | 0.788 | 0.76 | 0.915
GGGGGG | 0.592 | 0.551 | 0.615 | 0.581 | 0.546 | 0.571 | 0.698
CGCAAG | 0.853 | 0.809 | 0.771 | 0.77 | 0.857 | 0.715 | 0.821
ACAGTG | 0.542 | 0.5 | 0.487 | 0.509 | 0.505 | 0.508 | 0.519
CGCCAG | 0.726 | 0.608 | 0.679 | 0.635 | 0.688 | 0.711 | 0.689
TAGCCG | 0.872 | 0.845 | 0.883 | 0.857 | 0.838 | 0.968 | 0.891
GGCGTC | 0.699 | 0.724 | 0.768 | 0.8 | 0.826 | 0.789 | 0.767

Sequence | binding signal (FLI1) | binding signal (EHF) | binding signal (SPIB) | binding signal (ETV5) | binding signal (ELF4) | binding signal (ETV2) | binding signal (ETV3L)
GCCAAA | 0.862 | 0.856 | 0.813 | 0.925 | 0.887 | 0.878 | 0.877
CCAGCC | 0.723 | 0.771 | 0.771 | 0.794 | 0.784 | 0.887 | 0.829
GTCAGC | 0.753 | 0.694 | 0.706 | 0.71 | 0.769 | 0.885 | 0.651
CAAAGG | 0.838 | 0.832 | 0.793 | 0.83 | 0.872 | 0.974 | 0.807
GAGGCA | 0.434 | 0.418 | 0.473 | 0.45 | 0.41 | 0.448 | 0.451
GAGTGT | 0.545 | 0.525 | 0.52 | 0.508 | 0.532 | 0.447 | 0.534
GGAGGC | 0.23 | 0.245 | 0.26 | 0.236 | 0.229 | 0.246 | 0.269
GCGAGA | 0.52 | 0.505 | 0.5 | 0.518 | 0.489 | 0.577 | 0.515
CCGCGA | 0.736 | 0.657 | 0.734 | 0.718 | 0.794 | 0.788 | 0.734
GAAGGG | 0.808 | 0.775 | 0.766 | 0.82 | 0.757 | 0.846 | 0.839
TCGGTT | 0.878 | 0.865 | 0.828 | 0.763 | 0.778 | 0.777 | 0.713
CCCGAG | 0.826 | 0.982 | 0.939 | 0.84 | 0.826 | 0.816 | 0.825
GTGATT | 0.723 | 0.728 | 0.77 | 0.724 | 0.746 | 0.652 | 0.773
GGGCAG | 0.556 | 0.59 | 0.603 | 0.579 | 0.555 | 0.623 | 0.614
ACCGGG | 0.496 | 0.531 | 0.529 | 0.536 | 0.514 | 0.443 | 0.498
GCCAGT | 0.322 | 0.314 | 0.323 | 0.303 | 0.326 | 0.272 | 0.304
CAACGT | 0.856 | 0.867 | 0.91 | 0.867 | 0.91 | 0.752 | 0.846
GCATAG | 0.744 | 0.769 | 0.781 | 0.82 | 0.863 | 0.719 | 0.861
CGCGTG | 0.662 | 0.63 | 0.708 | 0.628 | 0.654 | 0.694 | 0.667
CAGGTC | 0.69 | 0.605 | 0.693 | 0.658 | 0.648 | 0.695 | 0.722

Sequence | binding signal (FLI1) | binding signal (EHF) | binding signal (SPIB) | binding signal (ETV5) | binding signal (ELF4) | binding signal (ETV2) | binding signal (ETV3L)
GACTGA | 0.778 | 0.801 | 0.809 | 0.811 | 0.865 | 0.723 | 0.764
ACACAG | 0.971 | 0.926 | 0.945 | 0.977 | 0.983 | 0.95 | 1.05
AGCCAT | 0.783 | 0.862 | 0.862 | 0.802 | 0.952 | 1.02 | 0.86
CAGGGC | 0.784 | 0.759 | 0.753 | 0.768 | 0.824 | 0.681 | 0.784
CGGGTT | 0.884 | 0.945 | 0.863 | 0.92 | 0.902 | 0.802 | 0.815
GCATAT | 0.951 | 0.892 | 0.883 | 0.917 | 0.933 | 1.02 | 0.996
CAGGAG | 0.258 | 0.255 | 0.276 | 0.281 | 0.257 | 0.302 | 0.265
AGTCCA | 0.72 | 0.678 | 0.661 | 0.732 | 0.681 | 0.772 | 0.699
GGTGGA | 0.537 | 0.632 | 0.588 | 0.677 | 0.541 | 0.433 | 0.599
GAGTAT | 0.595 | 0.633 | 0.588 | 0.637 | 0.64 | 0.596 | 0.604
GAGGGA | 0.472 | 0.497 | 0.48 | 0.504 | 0.499 | 0.475 | 0.526
AAGAGG | 0.774 | 0.911 | 0.914 | 0.849 | 0.851 | 0.84 | 0.819
ACGGTG | 0.54 | 0.504 | 0.5 | 0.527 | 0.575 | 0.531 | 0.563
ACGTAG | 0.799 | 0.751 | 0.717 | 0.759 | 0.805 | 0.657 | 0.743
GTCATA | 0.735 | 0.742 | 0.76 | 0.749 | 0.723 | 0.742 | 0.764
GGGATC | 0.629 | 0.62 | 0.562 | 0.595 | 0.638 | 0.514 | 0.609
TCGGAG | 0.214 | 0.193 | 0.185 | 0.207 | 0.179 | 0.174 | 0.214
GAGAGA | 0.466 | 0.396 | 0.392 | 0.42 | 0.435 | 0.43 | 0.397
TAGAGT | 0.756 | 0.748 | 0.765 | 0.74 | 0.765 | 0.731 | 0.89
GATTGG | 0.939 | 0.853 | 0.983 | 0.792 | 0.91 | 0.863 | 0.91

Single records, from the list above.
GAGAGA reads binding signal (FLI1): 0.466; binding signal (EHF): 0.396; binding signal (SPIB): 0.392; binding signal (ETV5): 0.42; binding signal (ELF4): 0.435; binding signal (ETV2): 0.43; binding signal (ETV3L): 0.397
ACGTAG reads binding signal (FLI1): 0.799; binding signal (EHF): 0.751; binding signal (SPIB): 0.717; binding signal (ETV5): 0.759; binding signal (ELF4): 0.805; binding signal (ETV2): 0.657; binding signal (ETV3L): 0.743
GGTGGA reads binding signal (FLI1): 0.537; binding signal (EHF): 0.632; binding signal (SPIB): 0.588; binding signal (ETV5): 0.677; binding signal (ELF4): 0.541; binding signal (ETV2): 0.433; binding signal (ETV3L): 0.599
